Laboratory results published in patent publication US5242783A, “Photographic material and process” (Eastman Kodak Company, priority 1992, dated 1993).

Assay: Hue shifting and release of masking coupler in photographic element, green density at minimum exposure after C-41 processing with and without HAS
Conditions: for Dg at Emin (with HAS): with hydroxylamine sulfate in color developer; for Dg at Emin (w/o HAS): without hydroxylamine sulfate; for extent of deblocking: during the hydroxylamine process

| SMILES | Dg at Emin (with HAS) (CS-1 (di-n-butyl phthalate)) | Dg at Emin (w/o HAS) (CS-1 (di-n-butyl phthalate)) | Dg at Emin (with HAS) (CS-2 (2,4-di-tertamylphenol)) | Dg at Emin (w/o HAS) (CS-2 (2,4-di-tertamylphenol)) | extent of deblocking |
| --- | --- | --- | --- | --- | --- |
| CCC(C)(C)c1ccc(OCCCCNC(=O)c2cc(Oc3ccc(N=Nc4cc(OC(C)C(=O)O)c5ccccc5c4OC(=O)C4(C)CCCCC4=O)cc3)c3ccccc3c2O)c(C(C)(C)CC)c1 (centres unmarked) [MC-2] | 0.20 | 0.09 | 0.19 | 0.09 | only partially deblocked |
| CCC(C)(C)c1ccc(OCCCCNC(=O)c2cc(Oc3ccc(N=Nc4cc(OC(C)C(=O)O)c5ccccc5c4O)cc3)c3ccccc3c2O)c(C(C)(C)CC)c1 (centres unmarked) [MC-3] | 0.35 | 0.33 | 0.31 | 0.30 | – |
| CCC(C)(C)c1ccc(OCCCCNC(=O)c2cc(Oc3ccc(N=Nc4cc(OC(C)C(=O)O)c5ccccc5c4OC(=O)C4(C)CN(C(=O)N(C)c5ccccc5)CCC4=O)cc3)c3ccccc3c2O)c(C(C)(C)CC)c1 (centres unmarked) [MC-1] | 0.32 | 0.09 | 0.35 | 0.09 | quantitatively deblocked |
